Source: patent US9249159B2, “Composition for treating hepatitis C virus, regulating phosphorylation of replicase” (Industry-Academic Cooperation Foundation, Yonsei University, priority 2011, dated 2016)
For part of these data: At least one structure is not confirmed: it was looked up by name or label, or the drawing left a doubt. Some entries share one result that the patent states for a list of compounds.

Chains of the proteins cited; added tags and fusions are not shown. Lines headed by an entry give the natural chain unless they say otherwise; changes in a name come on top.
UniProt Q16513: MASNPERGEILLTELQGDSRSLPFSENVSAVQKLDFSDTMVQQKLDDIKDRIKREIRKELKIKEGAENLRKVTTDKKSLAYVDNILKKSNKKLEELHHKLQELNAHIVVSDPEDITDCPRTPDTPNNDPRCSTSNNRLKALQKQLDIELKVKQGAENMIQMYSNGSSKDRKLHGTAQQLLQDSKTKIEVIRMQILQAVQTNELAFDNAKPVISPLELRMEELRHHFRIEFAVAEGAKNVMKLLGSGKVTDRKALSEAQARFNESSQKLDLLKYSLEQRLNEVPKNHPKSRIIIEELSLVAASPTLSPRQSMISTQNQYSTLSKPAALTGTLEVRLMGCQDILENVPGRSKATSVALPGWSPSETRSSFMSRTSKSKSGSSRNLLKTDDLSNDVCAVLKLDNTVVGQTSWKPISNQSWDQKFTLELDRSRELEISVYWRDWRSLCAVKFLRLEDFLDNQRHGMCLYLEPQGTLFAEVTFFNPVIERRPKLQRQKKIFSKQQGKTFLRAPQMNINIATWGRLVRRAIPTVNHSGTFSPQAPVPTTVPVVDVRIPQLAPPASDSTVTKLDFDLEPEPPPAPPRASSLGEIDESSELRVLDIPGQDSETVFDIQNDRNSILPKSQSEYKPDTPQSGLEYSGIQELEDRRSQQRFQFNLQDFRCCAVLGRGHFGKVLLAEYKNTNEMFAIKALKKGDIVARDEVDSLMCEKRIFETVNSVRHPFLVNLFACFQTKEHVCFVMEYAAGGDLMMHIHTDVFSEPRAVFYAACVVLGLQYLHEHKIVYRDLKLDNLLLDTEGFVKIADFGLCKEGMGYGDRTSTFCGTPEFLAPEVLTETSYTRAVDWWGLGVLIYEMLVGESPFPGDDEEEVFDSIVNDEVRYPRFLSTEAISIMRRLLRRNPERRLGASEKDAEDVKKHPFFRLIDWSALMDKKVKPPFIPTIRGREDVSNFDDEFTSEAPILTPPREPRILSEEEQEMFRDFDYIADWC

Experiments:
Huh7 cells = assay: Cell cycle analysis of Huh7 cells by flow cytometer; type: cell-based, human; conditions: 48 hours, 17-DMAG 500 nM
Method: The Huh7 cell treated with 17-DMAG or HA1077 for 48 hours was collected and washed with PBS. The cells were fixed with chilled ethanol for 30 min, treated with RNase A (100 μg/ml) for 5 min at room temperature, stained with 50 μg/mL propidium iodide (PI, Sigma-Aldrich) for 30 min at 37° C., and analyzed using a FACS Calibur flow cytometer (Becton Dickinson, San Jose, Calif., USA).
Then, a cell cycle assay was carried out by using a flow cytometer. Huh7 cells were treated with DMSO (0.25%) or 500 nM of 17-DMAG for 48 hours, and a cell cycle thereof was analyzed by using a flow cytometer to show the percentage of cells in G1, S, and G2/M phases. LY294002 as a PI3K inhibitor was used as a positive control.

PRK2 = biological target: T1, PRK2 (Homo sapiens, UniProt Q16513); assay: PRK2 phosphorylation (Thr816) and PRK2 level in R-1 cells by Western blot; type: cell-based; conditions: R-1 cell line, 10 or 20 μM, 48 hours, phospho-PRK2 antibody
T1 construct: endogenous in cells; host or cells: R-1 (Huh7-derived HCV replicon cells) and Huh7

Compound | cell cycle (G1, S, G2/M phases) (Huh7 cells) | effect of inhibiting PRK2 phosphorylation (PRK2) [%]
O=c1cc(N2CCOCC2)oc2c(-c3ccccc3)cccc12 [LY294002] | arrested a cell cycle in G1 phase | 
O=C(Nc1ccc2[nH]cnc2c1)C1CCCCC1 [compound #11, cyclohexanecarboxylic acid (1H-benzoimidazole-5-yl)-amide] |  | ≥ 50
O=C1NCCCC1C(=O)Nc1ccncc1 (stereo not drawn) [compound #17, 2-oxo-N-4-pyridinyl-3-piperidinecarboxamide] |  | ≥ 50
